Source: the supplement of paper PMC10849652
The list shows a part of the results.

Chains of the proteins cited; added tags and fusions are not shown. Lines headed by an entry give the natural chain unless they say otherwise; changes in a name come on top.
UniProt Q9UNE7: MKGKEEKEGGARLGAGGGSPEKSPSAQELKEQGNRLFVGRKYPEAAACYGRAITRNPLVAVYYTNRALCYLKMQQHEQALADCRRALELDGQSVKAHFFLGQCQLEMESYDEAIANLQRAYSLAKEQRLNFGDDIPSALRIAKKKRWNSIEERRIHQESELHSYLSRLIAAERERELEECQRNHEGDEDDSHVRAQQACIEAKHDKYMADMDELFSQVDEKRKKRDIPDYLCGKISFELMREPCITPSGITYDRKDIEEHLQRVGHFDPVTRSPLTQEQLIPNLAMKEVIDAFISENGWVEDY
UniProt Q92797: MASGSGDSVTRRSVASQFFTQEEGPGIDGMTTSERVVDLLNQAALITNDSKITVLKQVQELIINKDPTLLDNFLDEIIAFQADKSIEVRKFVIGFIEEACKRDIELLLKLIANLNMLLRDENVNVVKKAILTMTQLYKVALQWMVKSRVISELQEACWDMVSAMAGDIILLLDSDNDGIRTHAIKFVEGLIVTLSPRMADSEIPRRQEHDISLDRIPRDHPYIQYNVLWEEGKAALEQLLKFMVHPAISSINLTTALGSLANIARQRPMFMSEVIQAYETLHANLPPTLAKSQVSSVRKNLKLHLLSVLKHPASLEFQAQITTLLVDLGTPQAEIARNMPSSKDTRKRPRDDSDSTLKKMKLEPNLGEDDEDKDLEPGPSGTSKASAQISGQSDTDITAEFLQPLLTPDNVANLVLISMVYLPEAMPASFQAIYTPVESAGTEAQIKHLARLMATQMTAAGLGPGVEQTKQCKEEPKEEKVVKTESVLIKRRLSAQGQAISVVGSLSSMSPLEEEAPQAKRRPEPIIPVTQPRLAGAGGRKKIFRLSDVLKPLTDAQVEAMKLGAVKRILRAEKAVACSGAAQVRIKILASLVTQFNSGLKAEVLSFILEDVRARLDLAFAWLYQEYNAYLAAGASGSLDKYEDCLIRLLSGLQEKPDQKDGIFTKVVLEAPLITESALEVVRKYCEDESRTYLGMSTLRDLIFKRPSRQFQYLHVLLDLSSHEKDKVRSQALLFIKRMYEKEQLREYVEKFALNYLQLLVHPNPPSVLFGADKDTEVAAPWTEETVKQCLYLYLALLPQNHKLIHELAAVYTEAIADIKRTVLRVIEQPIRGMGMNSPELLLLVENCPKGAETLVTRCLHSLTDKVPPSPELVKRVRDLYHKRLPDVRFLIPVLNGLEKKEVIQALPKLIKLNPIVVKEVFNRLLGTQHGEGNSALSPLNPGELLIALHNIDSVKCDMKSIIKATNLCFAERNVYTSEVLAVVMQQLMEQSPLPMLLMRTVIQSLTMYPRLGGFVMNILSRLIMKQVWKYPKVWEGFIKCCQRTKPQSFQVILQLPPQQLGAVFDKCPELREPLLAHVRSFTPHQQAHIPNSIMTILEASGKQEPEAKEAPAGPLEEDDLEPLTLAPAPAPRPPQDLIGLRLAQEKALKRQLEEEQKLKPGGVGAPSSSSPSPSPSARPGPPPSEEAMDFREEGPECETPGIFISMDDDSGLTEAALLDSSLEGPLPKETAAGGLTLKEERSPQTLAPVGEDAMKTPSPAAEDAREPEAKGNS
UniProt Q15831: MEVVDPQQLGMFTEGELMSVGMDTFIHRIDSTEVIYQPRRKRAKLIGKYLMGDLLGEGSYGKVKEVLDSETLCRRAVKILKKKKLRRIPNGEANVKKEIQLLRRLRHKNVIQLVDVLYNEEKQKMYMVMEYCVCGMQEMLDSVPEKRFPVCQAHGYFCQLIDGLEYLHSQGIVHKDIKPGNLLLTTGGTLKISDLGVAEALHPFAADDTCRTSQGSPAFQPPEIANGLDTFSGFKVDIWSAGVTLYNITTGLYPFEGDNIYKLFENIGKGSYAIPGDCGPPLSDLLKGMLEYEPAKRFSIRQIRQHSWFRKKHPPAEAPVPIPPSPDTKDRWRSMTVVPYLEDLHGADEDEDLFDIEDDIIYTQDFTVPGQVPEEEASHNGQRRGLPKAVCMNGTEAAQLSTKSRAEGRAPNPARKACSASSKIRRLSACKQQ
UniProt O43815: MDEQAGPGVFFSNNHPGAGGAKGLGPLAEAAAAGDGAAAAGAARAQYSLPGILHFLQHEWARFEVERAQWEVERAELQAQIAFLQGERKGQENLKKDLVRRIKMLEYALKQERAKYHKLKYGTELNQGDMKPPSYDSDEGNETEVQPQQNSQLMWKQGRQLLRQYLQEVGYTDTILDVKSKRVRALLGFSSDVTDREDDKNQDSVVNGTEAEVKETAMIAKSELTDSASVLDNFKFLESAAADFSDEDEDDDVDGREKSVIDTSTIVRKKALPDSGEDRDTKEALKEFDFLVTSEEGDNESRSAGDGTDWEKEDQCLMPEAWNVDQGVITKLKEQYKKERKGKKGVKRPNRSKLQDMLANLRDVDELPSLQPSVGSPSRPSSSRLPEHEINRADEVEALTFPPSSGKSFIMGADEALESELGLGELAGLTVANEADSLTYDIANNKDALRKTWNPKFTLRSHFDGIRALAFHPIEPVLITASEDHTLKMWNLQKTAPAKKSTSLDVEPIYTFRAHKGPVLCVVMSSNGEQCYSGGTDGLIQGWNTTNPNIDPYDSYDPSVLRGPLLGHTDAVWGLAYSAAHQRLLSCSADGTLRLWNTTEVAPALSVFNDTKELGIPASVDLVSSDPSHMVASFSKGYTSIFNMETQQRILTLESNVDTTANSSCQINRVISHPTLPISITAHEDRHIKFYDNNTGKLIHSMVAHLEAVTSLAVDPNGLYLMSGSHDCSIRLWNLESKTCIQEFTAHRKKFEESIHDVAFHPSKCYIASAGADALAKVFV
UniProt Q96SI9: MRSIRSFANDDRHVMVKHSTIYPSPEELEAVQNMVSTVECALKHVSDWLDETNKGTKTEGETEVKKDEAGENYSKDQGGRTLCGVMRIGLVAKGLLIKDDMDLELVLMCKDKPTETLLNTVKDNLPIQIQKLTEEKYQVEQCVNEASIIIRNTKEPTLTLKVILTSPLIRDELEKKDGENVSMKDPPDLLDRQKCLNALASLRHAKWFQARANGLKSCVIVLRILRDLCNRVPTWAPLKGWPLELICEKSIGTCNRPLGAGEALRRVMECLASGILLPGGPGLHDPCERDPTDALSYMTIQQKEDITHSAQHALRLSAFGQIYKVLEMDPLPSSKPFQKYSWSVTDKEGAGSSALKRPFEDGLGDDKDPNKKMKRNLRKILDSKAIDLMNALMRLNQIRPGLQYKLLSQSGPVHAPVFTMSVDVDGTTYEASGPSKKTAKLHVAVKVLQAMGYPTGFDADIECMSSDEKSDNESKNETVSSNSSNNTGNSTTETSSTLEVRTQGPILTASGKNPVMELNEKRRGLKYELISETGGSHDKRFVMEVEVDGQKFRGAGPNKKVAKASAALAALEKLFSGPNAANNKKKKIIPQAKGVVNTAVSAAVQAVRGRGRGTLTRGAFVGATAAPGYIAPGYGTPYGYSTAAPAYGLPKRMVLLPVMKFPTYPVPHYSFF
UniProt Q7RTN6: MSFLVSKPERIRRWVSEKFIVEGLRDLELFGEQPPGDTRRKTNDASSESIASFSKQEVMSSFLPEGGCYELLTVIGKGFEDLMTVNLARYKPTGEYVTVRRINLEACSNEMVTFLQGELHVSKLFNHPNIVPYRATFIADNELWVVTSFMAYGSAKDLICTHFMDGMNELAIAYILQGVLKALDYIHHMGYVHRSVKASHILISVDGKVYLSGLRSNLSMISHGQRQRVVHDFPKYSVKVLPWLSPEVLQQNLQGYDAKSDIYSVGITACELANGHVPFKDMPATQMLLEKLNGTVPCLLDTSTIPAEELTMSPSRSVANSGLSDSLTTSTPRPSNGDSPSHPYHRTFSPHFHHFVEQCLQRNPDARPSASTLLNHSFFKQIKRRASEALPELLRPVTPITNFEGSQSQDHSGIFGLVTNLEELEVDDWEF
UniProt Q13277: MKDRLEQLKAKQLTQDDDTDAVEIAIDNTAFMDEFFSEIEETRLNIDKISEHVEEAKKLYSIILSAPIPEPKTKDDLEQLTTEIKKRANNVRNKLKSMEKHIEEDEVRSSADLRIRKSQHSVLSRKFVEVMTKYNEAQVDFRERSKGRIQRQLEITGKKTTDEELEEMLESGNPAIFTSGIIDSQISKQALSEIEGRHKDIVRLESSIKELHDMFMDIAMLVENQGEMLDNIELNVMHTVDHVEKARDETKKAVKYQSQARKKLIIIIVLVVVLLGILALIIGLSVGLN
UniProt Q9Y2Z0: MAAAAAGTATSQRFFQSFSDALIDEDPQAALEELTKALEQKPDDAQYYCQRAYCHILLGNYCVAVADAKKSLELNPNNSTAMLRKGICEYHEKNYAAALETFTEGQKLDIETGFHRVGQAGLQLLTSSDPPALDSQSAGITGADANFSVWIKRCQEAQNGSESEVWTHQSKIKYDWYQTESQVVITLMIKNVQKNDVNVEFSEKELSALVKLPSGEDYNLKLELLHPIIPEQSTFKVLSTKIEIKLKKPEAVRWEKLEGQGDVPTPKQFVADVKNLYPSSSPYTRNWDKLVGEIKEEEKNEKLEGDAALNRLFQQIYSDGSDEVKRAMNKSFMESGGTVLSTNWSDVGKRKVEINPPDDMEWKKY
UniProt Q86TM6, whole entry, looked up: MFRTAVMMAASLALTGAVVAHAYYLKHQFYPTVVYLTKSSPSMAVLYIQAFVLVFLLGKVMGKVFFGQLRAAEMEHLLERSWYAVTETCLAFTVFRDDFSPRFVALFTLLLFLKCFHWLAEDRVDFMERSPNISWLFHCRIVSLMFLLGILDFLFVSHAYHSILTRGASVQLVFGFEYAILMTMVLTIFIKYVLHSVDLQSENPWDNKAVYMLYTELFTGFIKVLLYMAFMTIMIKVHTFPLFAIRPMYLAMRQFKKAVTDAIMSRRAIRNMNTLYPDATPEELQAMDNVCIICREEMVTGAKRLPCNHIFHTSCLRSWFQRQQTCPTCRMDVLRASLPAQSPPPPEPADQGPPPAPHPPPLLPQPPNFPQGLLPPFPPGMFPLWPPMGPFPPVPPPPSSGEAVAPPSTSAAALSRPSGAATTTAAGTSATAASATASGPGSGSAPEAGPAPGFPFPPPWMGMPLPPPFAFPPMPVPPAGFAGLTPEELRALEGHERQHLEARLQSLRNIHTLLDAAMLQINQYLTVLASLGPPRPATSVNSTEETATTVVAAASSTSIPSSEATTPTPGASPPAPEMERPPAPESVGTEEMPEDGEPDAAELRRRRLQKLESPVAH
UniProt O15260: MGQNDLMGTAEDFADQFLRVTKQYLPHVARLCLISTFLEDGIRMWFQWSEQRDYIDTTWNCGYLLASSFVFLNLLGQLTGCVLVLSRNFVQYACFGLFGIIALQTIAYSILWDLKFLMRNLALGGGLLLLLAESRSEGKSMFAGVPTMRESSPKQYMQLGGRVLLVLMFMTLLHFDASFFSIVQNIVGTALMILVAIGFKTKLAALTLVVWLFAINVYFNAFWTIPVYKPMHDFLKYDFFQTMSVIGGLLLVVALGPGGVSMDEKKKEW
UniProt P49848, whole entry, looked up: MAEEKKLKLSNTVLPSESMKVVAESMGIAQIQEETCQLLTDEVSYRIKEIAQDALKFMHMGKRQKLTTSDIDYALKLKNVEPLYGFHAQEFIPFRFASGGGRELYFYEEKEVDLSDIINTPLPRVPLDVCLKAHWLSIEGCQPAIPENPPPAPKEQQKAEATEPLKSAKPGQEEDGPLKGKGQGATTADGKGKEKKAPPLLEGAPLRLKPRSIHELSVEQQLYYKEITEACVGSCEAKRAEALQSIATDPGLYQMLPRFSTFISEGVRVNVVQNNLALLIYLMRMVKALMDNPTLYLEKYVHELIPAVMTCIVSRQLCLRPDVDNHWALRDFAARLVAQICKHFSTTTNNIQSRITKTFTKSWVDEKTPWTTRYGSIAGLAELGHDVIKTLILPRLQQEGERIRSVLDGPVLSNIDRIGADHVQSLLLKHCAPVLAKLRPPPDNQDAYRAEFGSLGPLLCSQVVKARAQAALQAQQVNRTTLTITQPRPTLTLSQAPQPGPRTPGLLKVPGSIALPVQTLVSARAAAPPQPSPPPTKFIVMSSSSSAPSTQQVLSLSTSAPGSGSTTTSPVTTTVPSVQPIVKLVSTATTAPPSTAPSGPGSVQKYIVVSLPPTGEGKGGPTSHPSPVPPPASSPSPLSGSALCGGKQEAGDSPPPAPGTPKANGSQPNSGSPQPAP
UniProt P56962: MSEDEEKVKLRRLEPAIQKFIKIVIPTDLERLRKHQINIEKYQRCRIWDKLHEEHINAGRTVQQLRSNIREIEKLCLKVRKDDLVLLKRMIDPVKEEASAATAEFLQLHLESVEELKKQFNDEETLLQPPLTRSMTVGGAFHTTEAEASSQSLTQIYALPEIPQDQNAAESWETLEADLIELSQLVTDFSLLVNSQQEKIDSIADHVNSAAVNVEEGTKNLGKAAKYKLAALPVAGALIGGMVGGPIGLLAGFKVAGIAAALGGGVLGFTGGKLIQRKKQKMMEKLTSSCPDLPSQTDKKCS

Key:
Test in all cases: log2 fold change, soluble protein after heating vs DMSO (PISA); higher = thermal stabilisation; K562 lysate, 10 uM; active = over 0.2 and 3.5 SD of the protein, either way, in both replicates (recomputed)
lapatinib = compound: CS(=O)(=O)CCNCc1ccc(-c2ccc3ncnc(Nc4ccc(OCc5cccc(F)c5)c(Cl)c4)c3c2)o1 [lapatinib]
Method in brief: (§1)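 Following dounce homogenisation of K562 pellets in PBS pH 7.4 with 1 mM MgCl2, crude extract at 1 mg/mL protein was incubated for 30 min with 10 μM compound. Aliquots were then heated for 3 min over 48°C-58°C and pooled, NP-40 was added to 0.5% at 4°C, and soluble protein was recovered as the supernatant at 21,000xg for 90 min. Channel-sum-equalised TMTpro 16plex LC-MS/MS quantified this protein. Each value, from duplicates, is a log-two fold change in thermal stability relative to solvent controls.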

pictilisib = compound: CS(=O)(=O)N1CCN(Cc2cc3nc(-c4cccc5[nH]ncc45)nc(N4CCOCC4)c3s2)CC1 [pictilisib]
Method in brief: as §1

crizotinib = compound: C[C@@H](Oc1cc(-c2cnn(C3CCNCC3)c2)cnc1N)c1c(Cl)ccc(F)c1Cl [crizotinib]
Method in brief: as §1

[1] = compound: C[C@H](C1=CC=C(C=C1)C(=O)NC2=C3C=CNC3=NC=C2)N
Method in brief: as §1

duvelisib = compound: C[C@H](Nc1ncnc2nc[nH]c12)c1cc2cccc(Cl)c2c(=O)n1-c1ccccc1 [duvelisib]
Method in brief: as §1

gandotinib = compound: Cc1cc(Nc2cc(CN3CCOCC3)c3nc(C)c(Cc4ccc(Cl)cc4F)n3n2)n[nH]1 [gandotinib]
Method in brief: as §1

tozasertib = compound: Cc1cc(Nc2cc(N3CCN(C)CC3)nc(Sc3ccc(NC(=O)C4CC4)cc3)n2)n[nH]1 [tozasertib]
Method in brief: as §1

doramapimod = compound: Cc1ccc(-n2nc(C(C)(C)C)cc2NC(=O)Nc2ccc(OCCN3CCOCC3)c3ccccc23)cc1 [doramapimod]
Method in brief: as §1

bafetinib = compound: Cc1ccc(NC(=O)c2ccc(CN3CC[C@H](N(C)C)C3)c(C(F)(F)F)c2)cc1Nc1nccc(-c2cncnc2)n1 [bafetinib]
Method in brief: as §1

[2] = compound: Cc1cccc(CC(=O)N2CCc3c2ccc(-c2cn(C)c4ncnc(N)c24)c3F)n1
Method in brief: as §1

Measured: log2 fold change

STUB1 (UniProt Q9UNE7)
inactive: lapatinib -0.01 | pictilisib -0.012 | crizotinib -0.035 | [1] 0.004 | duvelisib -0.01 | gandotinib -0.073 | tozasertib -0.006 | doramapimod 0.019 | bafetinib -0.054 | [2] 0.05

SYMPK (UniProt Q92797)
inactive: lapatinib -0.029 | pictilisib -0.064 | crizotinib -0.03 | [1] 0.006 | duvelisib -0.011 | gandotinib -0.124 | tozasertib 0 | doramapimod -0.007 | bafetinib -0.053 | [2] 0.029

STK11 (UniProt Q15831)
inactive: lapatinib 0.095 | pictilisib -0.016 | crizotinib -0.048 | [1] -0.009 | duvelisib 0.054 | gandotinib -0.016 | tozasertib -0.062 | doramapimod 0.028 | bafetinib -0.101 | [2] 0.012

STK11IP (UniProt Q8N1F8)
inactive: lapatinib 0.022 | pictilisib 0.012 | crizotinib -0.022 | [1] 0.004 | duvelisib -0.052 | gandotinib -0.019 | tozasertib -0.014 | doramapimod 0.037 | bafetinib -0.008 | [2] 0.036

SUOX (UniProt P51687)
inactive: lapatinib -0.011 | pictilisib -0.009 | crizotinib 0 | [1] -0.013 | duvelisib -0.003 | gandotinib 0 | tozasertib 0.07 | doramapimod 0.006 | bafetinib 0.029 | [2] 0.008

SUPT5H isoform 2 (UniProt O00267)
inactive: lapatinib 0.081 | pictilisib -0.106 | crizotinib -0.137 | duvelisib 0.012 | doramapimod -0.022 | bafetinib 0.115

STRN (UniProt O43815)
inactive: lapatinib -0.005 | pictilisib 0.004 | crizotinib -0.007 | [1] -0.012 | duvelisib -0.01 | gandotinib -0.041 | tozasertib -0.014 | doramapimod 0 | bafetinib 0.016 | [2] 0.025

STRBP (UniProt Q96SI9)
inactive: lapatinib -0.005 | pictilisib 0 | crizotinib -0.006 | [1] -0.016 | duvelisib -0.008 | gandotinib 0.039 | tozasertib -0.009 | doramapimod 0.05 | bafetinib 0.012 | [2] 0.04

STRADA (UniProt Q7RTN6)
inactive: lapatinib 0.03 | pictilisib 0.009 | crizotinib -0.004 | [1] 0.044 | duvelisib 0.012 | gandotinib 0.003 | tozasertib -0.031 | doramapimod 0.047 | bafetinib 0.01 | [2] -0.076

STX3 (UniProt Q13277)
inactive: lapatinib -0.001 | pictilisib -0.012 | crizotinib 0.123 | [1] 0.115 | duvelisib 0.055 | gandotinib -0.002 | tozasertib 0.048 | doramapimod -0.06 | bafetinib 0.041 | [2] -0.026

SUGT1 isoform 2 (UniProt Q9Y2Z0)
inactive: lapatinib -0.087 | pictilisib 0.054 | crizotinib 0.11 | duvelisib 0.07 | tozasertib -0.033 | doramapimod -0.102 | bafetinib -0.037

SYVN1 (UniProt Q86TM6)
inactive: lapatinib -0.008 | pictilisib -0.05 | crizotinib -0.046 | [1] -0.001 | duvelisib 0.022 | gandotinib -0.016 | tozasertib 0.018 | doramapimod 0.046 | bafetinib 0.006 | [2] 0.02

SURF4 (UniProt O15260)
inactive: lapatinib -0.063 | pictilisib -0.016 | crizotinib 0.031 | [1] -0.157 | duvelisib 0.029 | gandotinib 0.04 | tozasertib -0.022 | doramapimod 0.024 | bafetinib -0.044 | [2] 0.14

TAF6 isoform 3 (UniProt P49848)
inactive: lapatinib -0.079 | pictilisib -0.101 | crizotinib -0.074 | [1] -0.002 | duvelisib 0.081 | gandotinib 0.013 | tozasertib -0.006 | doramapimod 0.091 | bafetinib 0.007 | [2] 0.018

STX17 (UniProt P56962)
inactive: lapatinib -0.013 | pictilisib -0.016 | crizotinib -0.031 | [1] 0.025 | duvelisib 0.007 | gandotinib -0.066 | tozasertib 0.001 | doramapimod 0.014 | bafetinib -0.071 | [2] 0.062

STXBP1 (UniProt P61764)
inactive: lapatinib -0.009 | pictilisib 0.002 | crizotinib -0.026 | [1] -0.069 | duvelisib 0.006 | gandotinib -0.046 | tozasertib -0.038 | doramapimod 0.015 | bafetinib -0.024 | [2] 0.082

2 entries drawn at random from those above:
STXBP1 (UniProt P61764)
inactive: lapatinib -0.009 | pictilisib 0.002 | crizotinib -0.026 | [1] -0.069 | duvelisib 0.006 | gandotinib -0.046 | tozasertib -0.038 | doramapimod 0.015 | bafetinib -0.024 | [2] 0.082

SURF4 (UniProt O15260)
inactive: lapatinib -0.063 | pictilisib -0.016 | crizotinib 0.031 | [1] -0.157 | duvelisib 0.029 | gandotinib 0.04 | tozasertib -0.022 | doramapimod 0.024 | bafetinib -0.044 | [2] 0.14
